# Earlier results as cited in publication PMC12299168 (Pharmaceutics, 2025).
# Conditions: oral administration, children aged 6–11 years; cited from earlier work
smiles,measurement,value
"O=C(O)COCCN1CCN([C@H](c2ccccc2)c2ccc(Cl)cc2)CC1 [LCZ, Levocetirizine]",Cmax,450 ± 0.1 ng/mL
